Results published in PubChem BioAssay AID504847 (National Center for Advancing Translational Sciences (NCATS), 2011).
Values joined by “and” are separate entries in the source; they are usually repeats but may differ in a detail not shown here. Equal values may be shown once. The whole screen tested about 400,000 compounds, of which about 3,700 (0.93%) were called active. Inconclusive results, whose numbers are uncertain, are shown with a selection of clear calls. The call rests on the fitted dose curve; in most records, active means well fitted inhibition curve with a large enough effect; inconclusive means small, poorly fitted or top-dose-only effect, or another doubt; inactive means no such curve, though single readings can be large or run the other way. Potencies of inconclusive entries are doubtful fits and often do not repeat.
On the % scale 0 is the no-effect control and ±100 the full control effect; potency means the concentration at half of the fitted maximal effect.

Protein sequences, listed by entry. Tags and fused reporters are not part of them. Lines headed by an entry give the natural chain unless they say otherwise; changes in a name come on top.
UniProt P11473: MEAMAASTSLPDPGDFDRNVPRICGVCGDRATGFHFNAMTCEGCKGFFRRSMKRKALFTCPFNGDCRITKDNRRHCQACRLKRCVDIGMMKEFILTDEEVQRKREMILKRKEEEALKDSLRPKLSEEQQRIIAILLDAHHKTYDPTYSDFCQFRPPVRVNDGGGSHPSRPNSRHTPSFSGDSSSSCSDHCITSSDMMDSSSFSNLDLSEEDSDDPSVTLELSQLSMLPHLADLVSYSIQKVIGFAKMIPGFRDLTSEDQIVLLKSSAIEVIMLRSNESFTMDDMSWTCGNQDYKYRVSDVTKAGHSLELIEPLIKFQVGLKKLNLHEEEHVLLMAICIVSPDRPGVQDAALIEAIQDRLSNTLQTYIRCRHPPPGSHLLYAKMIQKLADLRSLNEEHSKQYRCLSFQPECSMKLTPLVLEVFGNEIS

These molecules were tested against Vitamin D3 receptor (Homo sapiens) (UniProt P11473) (assay: Inhibitors of the vitamin D receptor (VDR): qHTS). Conditions: VDR-SRC2-3 peptide fluorescence polarization, 2 h; max response, negative = inhibition: active compounds read low.
Procedure, shortened: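 After 23 nl compound addition and a short centrifugation, plates sat for 2 hours at ambient temperature; polarization of fluorescence then indicated loss of VDR binding to peptide SRC2-3.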
For `CCC1(c2ccccc2)ON(c2c(Br)cccc2Br)C1=O` (stereo unspecified), the Potency was inconclusive: 89.1 µM [inhibitor, single point].
`O=C(Cc1cccc2ccccc12)Nc1ccc(O)cc1C(=O)O` was tested, and the Potency was inconclusive: 70.8 µM [inhibitor, partial curve].
With `CCOc1ccc2c(c1)nc(SCC(=O)c1cccs1)n2C` the Potency was inconclusive: 79.4 µM [inhibitor, partial curve].
With `COc1ccc(OC)c(C2=C[N+](=O)C(C)(C)C(C)(C)N2[O-])c1` the Potency was inconclusive: 3.16 µM [inhibitor, partial curve, poor fit].
`CCOC(=O)c1c(NC(=O)c2c(C(=O)O)cccc2[N+](=O)[O-])sc2c1CCCC2` was tested, and the Potency was inconclusive: 89.1 µM [inhibitor, single point].
In the case of `CC(C)CC1Nc2ncnc(N3CCCCC3)c2N(Cc2ccccc2)C1=O` (stereo unspecified), the max response, negative = inhibition is reported as inactive: -1.62%.
For `O=C(Nc1ccccc1OC(=O)c1ccccc1)c1ccccc1`, the max response, negative = inhibition was inactive: -10.9%.
For `O=C(C[C@H]1C[C@H](C(=O)N2CCCCC2)[C@@]2(CCc3ccccc3)c3[nH]c4cc(-c5ccco5)ccc4c3CCN2C1=O)NCCC1=CCCCC1`, the Potency was inconclusive: 28.2 µM [inhibitor, partial curve, poor fit].
For `FC(F)Oc1ccc(/C=N/n2c(Cc3ccc(Br)cc3)n[nH]c2=S)cc1`, the Potency was active: 79.4 µM.
With `CN1C(=O)S/C(=C/c2ccccc2OCc2ccc(C(=O)O)cc2)C1=O` the Potency was inconclusive: 56.2 µM [inhibitor, partial curve, poor fit].
For `O=c1[nH]c(CN2CCN(c3ccccc3O)CC2)nc2scc(-c3ccccc3Cl)c12`, the max response, negative = inhibition was inactive: -10.1%.
For `CC(C)(C)N=Cc1c(O)ccc2oc3c(c12)CCCC3`, the max response, negative = inhibition was inactive: -2.84%.
For `COc1ccc(OCc2ccc(/C=N\NC(=O)c3sccc3C)o2)cc1`, the max response, negative = inhibition was inactive: -5.69%.
For `O=C1Nc2ccc(Cl)cc2/C1=C/C1CC=CCC1` (stereo unspecified), the Potency was inconclusive: 89.1 µM [inhibitor, single point].
With `Cc1cccc(NC(=O)COc2ccc(-c3nn(C)c(=O)c4ccccc34)cc2)c1` the Potency was inconclusive: 89.1 µM [inhibitor, partial curve, poor fit].
For `COc1ccc(CNCCNC(=O)c2cccs2)cc1OC`, the max response, negative = inhibition was inactive: 6.07%.
`NC(=O)CC[C@@H]1NC(=O)[C@H](CO)NC(=O)c2cc([N+](=O)[O-])cc(I)c2NCC[C@@H](C(N)=O)NC1=O` was tested, and the Potency was inconclusive: 100 µM [inhibitor, single point].
In the case of `COc1ccccc1N/C(N)=N/c1nc(CSc2ccc(C)cc2)cc(=O)[nH]1`, the Potency is reported as inconclusive: 22.4 µM [inhibitor, partial curve, poor fit].
With `c1ccc2c(CNn3cnnc3)cccc2c1` the max response, negative = inhibition was inactive: -17.7%.
For `O=C1C(c2[nH]c3ccc(S(=O)(=O)O)cc3c2O)=Nc2ccc(S(=O)(=O)O)cc21`, the Potency was inconclusive: 89.1 µM [inhibitor, single point].
In the case of `O=C1C(=O)N(CCN2CCOCC2)C(c2ccc([N+](=O)[O-])cc2)/C1=C(/O)c1ccc2c(c1)OCO2` (stereo unspecified), the Potency is reported as inconclusive: 70.8 µM [inhibitor, partial curve].
`C[C@@H](NC(=O)OC(C)(C)C)c1nnc(S(=O)(=O)Cc2ccccc2)o1` was tested, and the Potency was active: 28.2 µM.
For `O=C(c1ccc(Br)cc1)C(CN1CCOCC1)c1ccccc1` (stereo unspecified), the Potency was active: 39.8 µM.
In the case of `O=C(NCc1cccc(Br)c1)c1ccc(NC(=O)N2CCCCc3ccccc32)cc1`, the max response, negative = inhibition is reported as inactive: 0.39%.
For `Cc1ccccc1-c1ccc2ncnc(N3CCOCC3)c2c1`, the Potency was active: 56.2 µM.
`Cc1ccc(-c2ccc(=O)n(CCC(=O)N3CCN(Cc4ccccc4)CC3)n2)cc1` was tested, and the Potency was inconclusive: 79.4 µM [inhibitor, single point].
`CCOc1nc(C#N)nc(N2CCCCC2)n1` was tested, and the Potency was inconclusive: 79.4 µM [inhibitor, single point].
`Cc1cccc(NC(=O)CCC(=O)N/N=C/c2cc([N+](=O)[O-])ccc2O)c1` was tested, and the Potency was inconclusive: 1 µM [inhibitor, full curve, poor fit].
In the case of `COc1ccc(/C=C/C(=O)CC(=O)/C=C/c2cccc(O)c2OC)cc1O`, the Potency is reported as inconclusive: 44.7 µM [inhibitor, partial curve] and inconclusive: 35.5 µM [inhibitor, partial curve].
With `CC1(C)CC(/C=C/c2ccccc2)=Nc2ccccc2N1` the Potency was inconclusive: 56.2 µM [inhibitor, partial curve, poor fit].
With `COc1ccc(CC(=O)NCC2CCCN(Cc3ccc(F)cc3F)C2)cc1` (stereo unspecified) the Potency was inconclusive: 39.8 µM [inhibitor, partial curve, poor fit].
For `Cc1nn(Cc2ccccc2)c2c1C(c1ccc(Cl)cc1)C(C#N)=C(N)O2` (stereo unspecified), the Potency was inconclusive: 79.4 µM [inhibitor, single point].
With `CCNC(=S)NCc1ccc2[nH]c(C)cc2c1` the max response, negative = inhibition was inactive: -12.5%.
For `N#CC1=C(N)C2=CCCC[C@H]2[C@H](c2ccc(Br)cc2)C1(C#N)C#N`, the Potency was inconclusive: 39.8 µM [inhibitor, partial curve, poor fit].
For `N=C1/C(=C\c2coc3ccccc3c2=O)C(=O)N=C2SC=CN12`, the max response, negative = inhibition was inactive: -23.4%.
With `O=C(CSc1ccccc1)N1CCCC(Nc2ccccc2)C1` (stereo unspecified) the Potency was active: 20 µM.
`COc1ccccc1CN1C(=O)CN(C2CCCCCC2)C(=O)C1c1ccc(F)cc1` (stereo unspecified) was tested, and the Potency was inconclusive: 89.1 µM [inhibitor, partial curve, poor fit].
In the case of `O=C(CS(=O)Cc1ccco1)NCC=CCOc1cc(CN2CCCCC2)ccn1` (stereo unspecified), the Potency is reported as inconclusive: 31.6 µM [inhibitor, partial curve].
For `CC(=O)Nc1ccc(NC(=O)c2cccc(Oc3ccccc3)c2)cc1`, the Potency was inconclusive: 79.4 µM [inhibitor, single point].
For `CCOC(=O)N1CCN(C(=O)c2ccc([N+](=O)[O-])cc2Cl)CC1`, the Potency was inconclusive: 56.2 µM [inhibitor, single point].
For `COc1ccc2cc(C(=O)NCc3ccc4c(c3)CCN4C(=O)c3ccc(F)cc3)[nH]c2c1`, the max response, negative = inhibition was inactive: 6.6%.
